Cleaved PARP after 72 h of treatment

Source: doi:10.1371/journal.pone.0140310, primary screening data, rounded.

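Human melanoma cell lines in 1,536-well plates were treated with a pair of drugs for 72 h, then fixed, stained and imaged. The read-out is the fraction of cleaved-PARP-positive nuclei, in % of that fraction in the DMSO control; 200 means twice the control level of this apoptosis marker. Concentrations were fixed for each drug; these are the higher of two levels. The file gives one value for each pair and line, without errors, so small differences may be noise. The marker varies much from line to line, for technical or biological reasons.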
Only some of the drugs and lines screened are listed, without regard to their results.
A dash means that no value is listed here.

Compounds and concentrations:
enzastaurin, 4 µM: Cn1cc(C2=C(c3cn(C4CCN(Cc5ccccn5)CC4)c4ccccc34)C(=O)NC2=O)c2ccccc21
STA-4783, 0.03 µM: CN(NC(=O)CC(=O)NN(C)C(=S)c1ccccc1)C(=S)c1ccccc1
veliparib, 7 µM: C[C@]1(c2nc3c(C(N)=O)cccc3[nH]2)CCCN1
palbociclib, 0.2 µM: CC(=O)c1c(C)c2cnc(Nc3ccc(N4CCNCC4)cn3)nc2n(C2CCCC2)c1=O
vincristine, 0.0005 µM: CC[C@]1(O)C[C@H]2CN(CCc3c([nH]c4ccccc34)[C@@](C(=O)OC)(c3cc4c(cc3OC)N(C=O)[C@H]3[C@@](O)(C(=O)OC)[C@H](OC(C)=O)[C@]5(CC)C=CCN6CC[C@]43[C@@H]65)C2)C1
sunitinib, 2 µM: CCN(CC)CCNC(=O)c1c(C)[nH]c(/C=C2\C(=O)Nc3ccc(F)cc32)c1C
etoposide, 0.1 µM: COc1cc([C@@H]2c3cc4c(cc3[C@@H](O[C@@H]3O[C@@H]5CO[C@@H](C)O[C@H]5[C@H](O)[C@H]3O)[C@H]3COC(=O)[C@H]23)OCO4)cc(OC)c1O
BI-78D3, 1 µM: O=c1[nH]nc(Sc2ncc([N+](=O)[O-])s2)n1-c1ccc2c(c1)OCCO2
TCS401, 8.33 µM: O=C(O)C(=O)Nc1sc2c(c1C(=O)O)CCNC2

| # | Drugs | SK-MEL-30 | WM115 | RVH-421 | WM3526 | WM1716 | RPMI-7951 |
|---|---|---|---|---|---|---|---|
| 1 | BI-78D3 and veliparib | 93.4 | 241 | 73.4 | 106 | 111 | 273 |
| 2 | STA-4783 and BI-78D3 | 87.7 | 5810 | 142 | 199 | 36.8 | 90.8 |
| 3 | STA-4783 and etoposide | 195 | 2430 | 89.9 | 34.6 | 175 | 59.1 |
| 4 | BI-78D3 and enzastaurin | 122 | 102 | 64.8 | 84.7 | 154 | 275 |
| 5 | STA-4783 and sunitinib | 303 | 957 | 1290 | 414 | 120 | 135 |
| 6 | vincristine and enzastaurin | 691 | 1280 | 271 | 1680 | 1470 | 1550 |
| 7 | palbociclib and vincristine | 246 | 506 | 116 | 97.9 | 112 | 239 |
| 8 | vincristine and BI-78D3 | 246 | 521 | 76.4 | 811 | 835 | 226 |
| 9 | veliparib and TCS401 | 94.8 | 74.9 | 225 | 61.0 | 118 | 61.8 |
| 10 | TCS401 and STA-4783 | 27.4 | 280 | 329 | 43.1 | 92.7 | 138 |
| 11 | sunitinib and enzastaurin | 171 | 171 | 168 | 223 | 128 | 65.2 |
| 12 | BI-78D3 and etoposide | 126 | 141 | 118 | 105 | 79.3 | 79.7 |
| 13 | BI-78D3 and palbociclib | 78.5 | 197 | 35.8 | 68.5 | 55.1 | 69.0 |
| 14 | sunitinib and TCS401 | 157 | 144 | 204 | 386 | 108 | 324 |
| 15 | STA-4783 and palbociclib | 374 | 2800 | 109 | 51.5 | 48.9 | 72.0 |
| 16 | palbociclib and veliparib | 247 | 92.7 | 113 | 182 | 41.4 | 44.7 |
| 17 | TCS401 and palbociclib | 46.1 | 1640 | 61.4 | 51.7 | 101 | 101 |
| 18 | BI-78D3 and sunitinib | 76.0 | 87.7 | 286 | 340 | 141 | 176 |
| 19 | etoposide and veliparib | 79.6 | 112 | 62.5 | 189 | 131 | 29.3 |
| 20 | etoposide and enzastaurin | 51.4 | 232 | 127 | 97.3 | 224 | 87.0 |
| 21 | sunitinib and palbociclib | 149 | 123 | 102 | 213 | 57.6 | 221 |
| 22 | TCS401 and vincristine | 371 | 681 | 160 | 1500 | 2280 | 125 |
| 23 | veliparib and sunitinib | 131 | 181 | 51.7 | 115 | 145 | 142 |
| 24 | veliparib and STA-4783 | 97.5 | 2630 | 57.5 | 100 | 35.7 | 42.7 |
| 25 | enzastaurin and TCS401 | 107 | 74.1 | 123 | 84.1 | 394 | 91.8 |
| 26 | veliparib and enzastaurin | 52.2 | 62.2 | 152 | 142 | 63.6 | 301 |
| 27 | TCS401 and BI-78D3 | 41.4 | 261 | 274 | 109 | 25.1 | 66.8 |
| 28 | enzastaurin and palbociclib | 17.1 | 50.2 | 280 | 92.3 | 68.6 | 587 |
| 29 | etoposide and palbociclib | 93.5 | 116 | 213 | 86.2 | 84.0 | 73.8 |
| 30 | veliparib and vincristine | 282 | 2180 | 486 | 1320 | 461 | 315 |
| 31 | etoposide and sunitinib | 207 | 84.0 | 52.5 | 307 | - | 92.0 |
| 32 | etoposide and TCS401 | 221 | 85.2 | 105 | 138 | 31.0 | 106 |
| 33 | vincristine and etoposide | 363 | 560 | 43.8 | 501 | 288 | 129 |
| 34 | sunitinib and vincristine | 838 | 1300 | 147 | 465 | 34.3 | 154 |
| 35 | STA-4783 and vincristine | 912 | 661 | 159 | 1490 | 1170 | 488 |